These are yes or no findings as the source states them, for the method shown. Binding seen in cells or lysates may run through a third protein. Here binding means that the protein was enriched with, or labelled near, the bait; the list need not be complete. Tags and fused reporters may be left off the sequences shown.

Chains of the proteins cited; added tags and fusions are not shown.
UniProt O75369: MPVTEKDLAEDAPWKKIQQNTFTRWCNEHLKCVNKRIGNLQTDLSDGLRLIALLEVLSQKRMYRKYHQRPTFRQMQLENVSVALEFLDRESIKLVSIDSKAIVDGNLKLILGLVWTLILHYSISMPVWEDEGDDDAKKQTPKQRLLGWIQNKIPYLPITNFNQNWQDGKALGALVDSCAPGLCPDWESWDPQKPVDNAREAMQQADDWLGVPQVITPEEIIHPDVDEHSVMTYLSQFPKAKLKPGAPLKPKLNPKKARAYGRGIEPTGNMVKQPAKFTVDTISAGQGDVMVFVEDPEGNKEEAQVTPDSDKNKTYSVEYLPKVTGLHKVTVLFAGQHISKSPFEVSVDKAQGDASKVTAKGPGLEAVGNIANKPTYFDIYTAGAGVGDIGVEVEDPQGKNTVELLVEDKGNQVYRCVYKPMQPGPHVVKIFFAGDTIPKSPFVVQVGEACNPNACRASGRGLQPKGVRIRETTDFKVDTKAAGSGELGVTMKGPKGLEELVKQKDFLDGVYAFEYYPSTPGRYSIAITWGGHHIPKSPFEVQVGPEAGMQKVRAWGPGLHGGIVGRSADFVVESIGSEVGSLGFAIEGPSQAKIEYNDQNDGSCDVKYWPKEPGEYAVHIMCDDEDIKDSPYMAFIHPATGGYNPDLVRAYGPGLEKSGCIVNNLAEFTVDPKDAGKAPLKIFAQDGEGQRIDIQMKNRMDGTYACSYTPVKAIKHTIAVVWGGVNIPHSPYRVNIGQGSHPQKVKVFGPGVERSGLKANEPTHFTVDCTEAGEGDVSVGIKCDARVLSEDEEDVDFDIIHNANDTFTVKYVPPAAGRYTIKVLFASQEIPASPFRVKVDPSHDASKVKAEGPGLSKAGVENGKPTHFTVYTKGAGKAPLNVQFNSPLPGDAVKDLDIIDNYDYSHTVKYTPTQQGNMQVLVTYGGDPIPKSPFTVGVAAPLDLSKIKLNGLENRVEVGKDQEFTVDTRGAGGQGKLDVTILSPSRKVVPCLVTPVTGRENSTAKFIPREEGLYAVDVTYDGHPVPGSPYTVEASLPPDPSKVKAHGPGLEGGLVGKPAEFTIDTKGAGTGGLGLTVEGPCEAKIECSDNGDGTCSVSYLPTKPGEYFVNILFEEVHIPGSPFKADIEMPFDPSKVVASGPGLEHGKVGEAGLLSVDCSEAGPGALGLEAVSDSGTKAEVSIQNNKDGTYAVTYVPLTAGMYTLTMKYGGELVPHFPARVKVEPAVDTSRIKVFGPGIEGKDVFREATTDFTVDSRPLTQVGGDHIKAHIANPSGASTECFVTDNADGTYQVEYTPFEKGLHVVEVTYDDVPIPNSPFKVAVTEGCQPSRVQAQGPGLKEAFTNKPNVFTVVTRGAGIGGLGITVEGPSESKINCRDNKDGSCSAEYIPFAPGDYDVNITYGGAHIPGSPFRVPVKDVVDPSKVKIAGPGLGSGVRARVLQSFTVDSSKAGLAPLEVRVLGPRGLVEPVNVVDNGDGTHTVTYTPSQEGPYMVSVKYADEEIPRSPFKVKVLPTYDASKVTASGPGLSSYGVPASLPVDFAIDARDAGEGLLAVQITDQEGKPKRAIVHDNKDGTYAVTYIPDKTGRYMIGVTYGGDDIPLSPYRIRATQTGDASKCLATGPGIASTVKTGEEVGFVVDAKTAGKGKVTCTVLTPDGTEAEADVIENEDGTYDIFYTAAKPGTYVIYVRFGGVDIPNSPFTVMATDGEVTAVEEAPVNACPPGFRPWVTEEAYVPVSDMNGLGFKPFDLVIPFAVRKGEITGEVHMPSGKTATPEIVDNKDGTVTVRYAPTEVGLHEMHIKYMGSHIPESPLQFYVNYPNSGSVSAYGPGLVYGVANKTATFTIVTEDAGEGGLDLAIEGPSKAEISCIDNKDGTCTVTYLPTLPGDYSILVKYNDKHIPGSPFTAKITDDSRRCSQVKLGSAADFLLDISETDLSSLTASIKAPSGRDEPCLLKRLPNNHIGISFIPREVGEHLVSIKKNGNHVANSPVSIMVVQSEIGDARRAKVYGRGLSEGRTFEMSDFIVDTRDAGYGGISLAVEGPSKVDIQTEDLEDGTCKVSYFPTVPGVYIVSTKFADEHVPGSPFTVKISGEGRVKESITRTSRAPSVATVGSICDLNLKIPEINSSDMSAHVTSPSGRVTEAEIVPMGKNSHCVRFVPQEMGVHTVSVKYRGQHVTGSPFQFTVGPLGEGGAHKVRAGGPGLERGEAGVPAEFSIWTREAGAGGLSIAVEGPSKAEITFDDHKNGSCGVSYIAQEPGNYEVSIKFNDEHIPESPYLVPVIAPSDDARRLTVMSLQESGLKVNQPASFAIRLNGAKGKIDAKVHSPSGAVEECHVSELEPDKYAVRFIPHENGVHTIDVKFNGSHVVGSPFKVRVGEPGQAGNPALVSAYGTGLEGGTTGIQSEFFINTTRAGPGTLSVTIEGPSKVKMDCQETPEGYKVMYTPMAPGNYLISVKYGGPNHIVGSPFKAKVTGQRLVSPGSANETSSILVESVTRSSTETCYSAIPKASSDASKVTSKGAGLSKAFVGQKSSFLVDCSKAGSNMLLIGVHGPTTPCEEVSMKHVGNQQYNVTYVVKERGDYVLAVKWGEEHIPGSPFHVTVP

In article PMC12244780 one finds binding data, which are given here for 1 substance.

This test has as its target T1, Flag-MTMR7 (myotubularin-related protein 7) (UniProt Q9Y216).
T1 sequence: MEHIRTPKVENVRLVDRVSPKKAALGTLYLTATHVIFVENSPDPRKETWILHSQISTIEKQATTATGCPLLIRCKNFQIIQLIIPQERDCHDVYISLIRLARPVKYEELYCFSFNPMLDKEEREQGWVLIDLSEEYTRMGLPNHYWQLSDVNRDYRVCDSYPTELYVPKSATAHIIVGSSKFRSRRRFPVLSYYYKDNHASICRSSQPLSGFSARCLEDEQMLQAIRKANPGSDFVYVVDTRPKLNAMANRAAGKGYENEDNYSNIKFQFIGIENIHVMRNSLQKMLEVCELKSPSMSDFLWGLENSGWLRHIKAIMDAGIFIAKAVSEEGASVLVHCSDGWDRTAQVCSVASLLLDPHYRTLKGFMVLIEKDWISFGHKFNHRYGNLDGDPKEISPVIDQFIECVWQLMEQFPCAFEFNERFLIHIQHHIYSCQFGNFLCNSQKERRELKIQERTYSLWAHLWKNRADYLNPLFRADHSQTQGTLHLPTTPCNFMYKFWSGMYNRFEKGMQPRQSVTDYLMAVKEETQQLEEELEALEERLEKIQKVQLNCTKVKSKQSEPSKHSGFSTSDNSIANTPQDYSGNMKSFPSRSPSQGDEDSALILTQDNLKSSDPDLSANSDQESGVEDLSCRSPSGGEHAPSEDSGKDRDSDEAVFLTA
As to the kind of experiment: affinity purification with mass spectrometry; lysate of SSCs transfected with Flag-MTMR7 or empty vector; pre-cleared with protein A/G magnetic beads; anti-Flag magnetic beads overnight at 4°C; washed with PBS and RIPA; PAGE, in-gel digestion, LC-MS/MS.

Regarding “filamin B (FLNB) (from UniProt O75369 1-2602)”, the binding result is given as “binds”.
